Results deposited as PubChem BioAssay AID504791 (Drosophila RNAi Screening Center, 2011)
The deposit covers about 23,000 reagents; shown is an unselected part of those that have a named target and a result. Over the whole deposit, 199 (0.86%) were called active. 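Plate-scaled ratios behind the calls are not deposited; printed light signals are raw; many rows marked increased or decreased are still called inactive.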 A number with no mark means an inactive call. Names joined by + are all predicted targets of the reagent. Not given: the direction of the score.

- Aim: 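Genes of the fly required for silencing by miRNA, siRNA or endo-siRNA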 (primary screen)
- System: Drosophila S2-derived reporter cells
- Reagent: long dsRNA against Drosophila genes, about 150-250 ng dsRNA per well (siRNA assay); about 80-120 ng (miRNA assay)
- Timing: about 5 days (siRNA assay); about 4 days (miRNA assay)
- Treatment: copper sulfate induction of reporters: 25 µM (siRNA assay); 200 mM stated (miRNA assay), 1-2 days before reading
- Measurement: 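Dual luciferase assay: Renilla to firefly signal ratio in each well, scaled to the mean ratio of its plate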
- Units: stable assay Renilla, run 1 in luminescence; stable assay firefly, run 1 in luminescence
- Rule for the call: 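First-pass picks had plate-scaled ratios over 1.5 for the siRNA assay, over 1.6 for the miRNA assay, or under 0.6; two distinct dsRNAs had to score alike on retest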

The first 5 records, to show the layout:
stable siRNA reporter change	miRNA reporter change	stable assay Renilla, run 1	stable assay firefly, run 1	gene	dsRNA
		5779	6.96e5	antr (antares)	DRSC22392
		8575	2.84e5	Rab11	DRSC16809
		7636	4.40e5	TppII (Tripeptidyl-peptidase II)	DRSC07565
		6968	3.81e5	Pk34A (Protein kinase at 34A)	DRSC03398
		6432	3.19e5	CG4210	DRSC15551

The list itself, repeating the preview:
stable siRNA reporter change	miRNA reporter change	stable assay Renilla, run 1	stable assay firefly, run 1	gene	dsRNA
		5779	6.96e5	antr (antares)	DRSC22392
		8575	2.84e5	Rab11	DRSC16809
		7636	4.40e5	TppII (Tripeptidyl-peptidase II)	DRSC07565
		6968	3.81e5	Pk34A (Protein kinase at 34A)	DRSC03398
		6432	3.19e5	CG4210	DRSC15551
		5975	3.28e5	CG3224	DRSC18295
		9572	5.73e5	Cnep1r2 (CTD nuclear envelope phosphatase 1 regulatory subunit 2)	DRSC10950
		5175	4.87e5	CG42714	DRSC08798
		7080	4.94e5	Dh44 (Diuretic hormone 44)	DRSC12747
		6812	3.94e5	Dh44 (Diuretic hormone 44)	DRSC16409
		10019	4.61e5	Map205 (Microtubule-associated protein 205)	DRSC16732
		16271	3.93e5	CG9109	DRSC03139
		8019	1.77e6	OS9 + Hf	DRSC03392
		5039	3.54e5	santa-maria	DRSC00994
		41272	1.37e5	santa-maria	DRSC02180
		7231	3.79e5	CG8516	DRSC16437
		7379	4.00e5	Obp93a (Odorant-binding protein 93a)	DRSC15220
		5843	4.54e5	CG33639	DRSC19966
		4555	3.96e5	CG33639	DRSC22820
		3963	4.05e5	CG31229	DRSC13309
		8097	3.14e5	Btk (Bruton tyrosine kinase)	DRSC02008
		10046	1.10e6	Btk (Bruton tyrosine kinase)	DRSC02666
		4911	4.49e5	Btk (Bruton tyrosine kinase)	DRSC22427
		27997	1.20e6	pippin	DRSC04489
		9312	4.53e5	CG8745	DRSC11033
		7167	5.50e5	CG8745	DRSC11034
		2171	2.54e5	CG8745	DRSC22741
		5319	4.62e5	RapGAP1 (Rap GTPase activating protein 1)	DRSC02293
		7091	5.35e5	RapGAP1 (Rap GTPase activating protein 1)	DRSC02294
		1.92e5	1.41e5	RapGAP1 (Rap GTPase activating protein 1)	DRSC03406
		4459	4.23e5	CG3036	DRSC00260
		9919	4.20e5	CG3036	DRSC00562
		8704	4.08e5	CCT5 (Chaperonin containing TCP1 subunit 5)	DRSC07357
		7506	3.48e5	CG6966	DRSC16156
		8266	5.19e5	Snm1	DRSC12130
		5251	2.66e5	Polr2B (RNA polymerase II subunit B)	DRSC16831
		6799	3.32e5	CG8132	DRSC16383
		8920	5.23e5	Sap130 (Sin3A-associated protein 130)	DRSC09680
		9477	5.68e5	beat-Ia (beaten path Ia)	DRSC03489
		11197	3.71e5	Prp31 (Pre-mRNA processing factor 31)	DRSC10735
		8086	5.53e5	EMC10 (ER membrane protein complex subunit 10)	DRSC11850
		5134	2.91e5	CG15336	DRSC18019
		7307	5.01e5	CG13021	DRSC17893
		5371	2.14e5	Proc (Proctolin)	DRSC03009
		3103	2.60e5	Proc (Proctolin)	DRSC22998
		8252	4.33e5	shtd (shattered)	DRSC20166
		4902	3.65e5	ND1 (retired record)	DRSC21273
		22974	1.95e6	Dhx15 (DEAH-box helicase 15)	DRSC06036
		43790	3.17e5	Nubpl (NUBP iron-sulfur cluster assembly factor, mitochondrial)	DRSC03725
		7698	4.70e5	Dip-B (Dipeptidase B)	DRSC16466
		6608	3.76e5	CG6660	DRSC16087
		4351	3.85e5	mRpS9 (mitochondrial ribosomal protein S9)	DRSC12645
		4407	3.44e5	mRpS9 (mitochondrial ribosomal protein S9)	DRSC15456
		5990	4.44e5	ase (asense)	DRSC18739
		5618	3.10e5	CG42264	DRSC18074
		6695	3.26e5	CG42264	DRSC18075
	reporter ratio lowered past the hit cutoff	7391	4.14e5	trr (trithorax-related)	DRSC18845
reporter ratio lowered past the hit cutoff		3147	3.96e5	trr (trithorax-related)	DRSC23290
		5868	3.45e5	CG13526	DRSC04168
		6328	3.37e5	CG4907	DRSC15673
		6722	5.98e5	CG5639	DRSC15851
		7002	4.10e5	dbf (doublefault)	DRSC02570
		4528	1.67e5	CG34386	DRSC06467
		6618	3.55e5	CG34386	DRSC06468
		4659	3.27e5	CG34386	DRSC23234
		5668	3.20e5	CG3408	DRSC10360
		7439	3.15e5	fs(1)Ya (female sterile (1) Young arrest)	DRSC18776
		4519	2.51e5	fs(1)Ya (female sterile (1) Young arrest)	DRSC23058
		7384	3.60e5	fy (fuzzy)	DRSC03533
		7191	4.27e5	PXo (P[[i]]-sensitive XPR1 orthologue)	DRSC09734
		8187	6.60e5	Syx6 (Syntaxin 6)	DRSC07032
		9619	3.73e5	CG4849	DRSC15662
		7031	3.48e5	CG15144	DRSC02445
		11124	3.89e5	l(3)05822 (lethal (3) 05822)	DRSC16202
		10617	3.84e5	tea (telomere ends associated)	DRSC06110
		7446	4.70e5	tea (telomere ends associated)	DRSC06236
		6732	4.42e5	CG4781	DRSC04488
		7374	3.78e5	Eig71Ef (Ecdysone-induced gene 71Ef)	DRSC11153
		7727	4.07e5	mRpL12 (mitochondrial ribosomal protein L12)	DRSC10467
		6986	6.24e5	CG42531	DRSC05318
		4543	3.59e5	CG14830	DRSC08876
		6579	4.78e5	CG14830	DRSC10200
		20075	1.18e6	gny (garnysstan)	DRSC02810
		4179	4.32e5	CG1513	DRSC05194
		3503	3.70e5	CG1513	DRSC06553
		6508	5.08e5	CG1513	DRSC06554
		8390	4.37e5	Pgant4 (Polypeptide N-Acetylgalactosaminyltransferase 4)	DRSC00717
		7963	4.76e5	pall (pallbearer)	DRSC10364
		10620	5.88e5	Rbf (Retinoblastoma-family protein)	DRSC18704
		6531	5.74e5	CG33627	DRSC05343
		5932	3.70e5	CG14427	DRSC17921
		4515	2.88e5	CG33702	DRSC08986
		5343	2.86e5	CG13155	DRSC06280
reporter ratio raised past the hit cutoff (active)		6895	2.55e5	RpL21 (Ribosomal protein L21)	DRSC03704
		12266	4.13e5	CG1275	DRSC08294
		5624	3.94e5	mRpL41 (mitochondrial ribosomal protein L41)	DRSC06257
		7638	3.36e5	Ser12 (Serine protease 12)	DRSC00786
		11843	4.23e5	Chmp1 (Charged multivesicular body protein 1)	DRSC10401
		7394	3.71e5	l(1)G0320 (lethal (1) G0320)	DRSC18255
		7822	4.01e5	Atg13 (Autophagy-related 13)	DRSC16228
		6954	3.60e5	Cyp12a5 (Cytochrome P450 12a5)	DRSC16621
		5399	4.00e5	tsg (twisted gastrulation)	DRSC20380
		6814	5.85e5	CG13404	DRSC19536
		7958	4.73e5	ry (rosy)	DRSC17048
		6347	3.32e5	CG13465	DRSC10011
reporter ratio lowered past the hit cutoff		4179	5.58e5	Tpst (Tyrosylprotein sulfotransferase)	DRSC18989
		6888	5.55e5	Tpst (Tyrosylprotein sulfotransferase)	DRSC19696
		5023	4.41e5	Tpst (Tyrosylprotein sulfotransferase)	DRSC19723
		4414	3.81e5	Tpst (Tyrosylprotein sulfotransferase)	DRSC19724
		4163	4.26e5	Tpst (Tyrosylprotein sulfotransferase)	DRSC22621
